PubChem BioAssay AID1259331 | Drosophila RNAi Screening Center | 2017

Aim: 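Genes whose knock-down changes cell survival under toxic zinc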 (primary screen)
Cells: Drosophila S2R+ cells
Knock-down reagent: long dsRNA against Drosophila genes
Duration: 5 days (4 days knock-down, then 1 day zinc)
Treatment: zinc chloride at 15 mM final level for 1 day
Read-out: 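Luminescent ATP assay standing in for viability; Z score is the mean over three replicate plates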
Scale: mean Z score: higher = more ATP than other wells, better survival under zinc; ATP luminescence: higher = more ATP, more viable cells
Call rule: 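a reagent is called a hit when its Z score is above 1.5 or below -1.5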
Calls: active = hit, ATP up or down; inactive = not a hit
Here is an unselected part of about 3,100 reagents tested. 126 of them (4.1%) count as active. 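Calls are per reagent; zinc was so toxic that few knock-downs lowered ATP further, so most hits raise ATP.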 Raw values are not corrected between plates. Entries without a mark were called inactive. The numbers tell different reagents against one gene apart. Names joined by + are all predicted targets of the reagent. Not given: the amount of reagent.

predicted target | reagent | mean Z score | ATP luminescence, replicate 1 | ATP luminescence, replicate 2
HisCl1 | 1 | -0.508 | 40982 | 41222
kek3 | 1 | 0.0177 | 49778 | 47171
kek3 | 2 | -0.143 | 54270 | 55265
Mics1 | 1 | -0.565 | 36747 | 47120
Mics1 | 2 | 0.509 | 60257 | 54836
Hsepi | 1 | 1.3 | 1.20e5 | 95606
Hsepi | 2 | 0.0568 | 56031 | 58214
CG12194 | 1 | -0.155 | 44617 | 39560
CG12194 | 2 | 0.0152 | 60581 | 58075
CG6928 | 1 | -0.359 | 28125 | 28928
CG6928 | 2 | 2.33 (active) | 95245 | 96745
Inx7 + cm | 1 | -0.443 | 39833 | 42730
O-fut1 | 1 | 0.14 | 28859 | 35136
O-fut1 | 2 | 0.0121 | 59209 | 56585
CG14621 | 1 | -0.266 | 37639 | 41119
CG14621 | 2 | 0.213 | 62484 | 59071
lbm | 1 | -0.013 | 72534 | 70149
lbm | 2 | 0.0893 | 55213 | 52675
CG7990 | 1 | -0.17 | 41891 | 45268
CG7990 | 2 | -0.012 | 48306 | 44377
CG7990 | 3 | -0.0417 | 59740 | 57357
ste24b | 1 | 1.43 | 88469 | 96601
ste24b | 2 | 0.505 | 62107 | 61935
CG16736 | 1 | -0.217 | 38591 | 55642
Dg | 1 | -0.147 | 63839 | 68795
CG7536 | 1 | -0.417 | 41376 | 39713
CG7536 | 2 | -0.361 | 53155 | 58231
Baldspot | 1 | -0.569 | 63925 | 50686
santa-maria | 1 | -0.151 | 40262 | 40896
santa-maria | 2 | -0.0185 | 54304 | 57717
CG7582 | 1 | 0.0514 | 65382 | 68452
CG7582 | 2 | -0.325 | 50121 | 53224
CG1636 + CG15343 | 1 | -0.533 | 55830 | 44375
Nckx30C | 1 | -0.53 | 42388 | 38016
Nckx30C | 2 | -0.203 | 48972 | 41223
Nckx30C | 3 | -0.513 | 69996 | 49726
alka | 1 | -0.237 | 84095 | 66874
PGAP3 | 1 | -0.169 | 27302 | 33292
PGAP3 | 2 | -0.676 | 53841 | 49915
bond | 1 | -0.0245 | 45535 | 45812
bond | 2 | 0.336 | 57902 | 61952
CG1317 | 1 | -0.503 | 27473 | 28056
CG1317 | 2 | 0.237 | 64473 | 59790
nebu | 1 | -0.396 | 28063 | 26890
nebu | 2 | 0.643 | 89738 | 69190
COX7A | 1 | 1.01 | 33593 | 68041
CG5104 | 1 | -0.508 | 71760 | 52641
CG5104 | 2 | 0.0217 | 62535 | 56636
CG5348 | 1 | -0.419 | 67134 | 66320
CG5348 | 2 | 0.33 | 59432 | 67879
CG4907 | 1 | -0.124 | 36747 | 58265
CG4907 | 2 | -0.0369 | 61262 | 59654
CG4332 | 1 | -0.591 | 38119 | 39751
CG4332 | 2 | 0.0541 | 61249 | 59174
CG8654 | 1 | -0.165 | 28530 | 30747
foi | 1 | 5.25 (active) | 1.76e5 | 1.32e5
foi | 2 | 0.597 | 68435 | 72808
heix | 1 | 0.254 | 59586 | 60032
heix | 2 | -0.344 | 57185 | 51476
CR33013 | 1 | -0.0793 | 75621 | 70407
CR33013 | 2 | -0.204 | 58265 | 58231
CG42329 | 1 | -0.112 | 45985 | 44582
CG33012 | 1 | -0.334 | 67914 | 67920
CG33012 | 2 | -0.102 | 41033 | 40708
Or98b | 1 | 0.0737 | 47354 | 47737
CG6126 | 1 | -0.143 | 46674 | 40639
CG6126 | 2 | -0.432 | 47600 | 38805
GluRIIE | 1 | 0.143 | 36928 | 60470
GluRIIE | 2 | -0.177 | 60906 | 52178

Laid out differently: 11 of the entries above
lbm #2: mean Z score = 0.0893; ATP luminescence, replicate 1 = 55213; ATP luminescence, replicate 2 = 52675
CG7990 #1: mean Z score = -0.17; ATP luminescence, replicate 1 = 41891; ATP luminescence, replicate 2 = 45268
CG7990 #2: mean Z score = -0.012; ATP luminescence, replicate 1 = 48306; ATP luminescence, replicate 2 = 44377
CG7990 #3: mean Z score = -0.0417; ATP luminescence, replicate 1 = 59740; ATP luminescence, replicate 2 = 57357
ste24b #1: mean Z score = 1.43; ATP luminescence, replicate 1 = 88469; ATP luminescence, replicate 2 = 96601
ste24b #2: mean Z score = 0.505; ATP luminescence, replicate 1 = 62107; ATP luminescence, replicate 2 = 61935
CG16736: mean Z score = -0.217; ATP luminescence, replicate 1 = 38591; ATP luminescence, replicate 2 = 55642
Dg: mean Z score = -0.147; ATP luminescence, replicate 1 = 63839; ATP luminescence, replicate 2 = 68795
CG7536 #1: mean Z score = -0.417; ATP luminescence, replicate 1 = 41376; ATP luminescence, replicate 2 = 39713
CG7536 #2: mean Z score = -0.361; ATP luminescence, replicate 1 = 53155; ATP luminescence, replicate 2 = 58231
Baldspot: mean Z score = -0.569; ATP luminescence, replicate 1 = 63925; ATP luminescence, replicate 2 = 50686
